Laboratory results: PubChem BioAssay AID1224830 (NIAID, 2016)

- Purpose: 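Regulators of TLR4 signalling towards TNF-alpha in macrophage-like cells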 (primary screen)
- Cells: human THP-1 monocytic leukaemia cells, TNF dual-luciferase reporter clone, PMA-differentiated to macrophage-like cells
- Reagent: siRNA pool against human genes, 50 nM
- Time to read-out: LPS for 4 h, given about 3 days after siRNA transfection
- Conditions: bacterial LPS (TLR4 ligand), 10 ng/ml
- Measurement: 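Ratio of firefly to renilla light, scaled to the plate median and expressed as a robust z-score per replicate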
- Reading the numbers: TNF reporter robust z-score: higher = stronger TNF reporter response to LPS
- Rule for the call: 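a well is active when its z-score exceeds 2.8 or falls below -1.5; control wells carry no call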
This is one part, drawn at random, of about 18,000 reagents. About 2,900 of them (16%) were called active. 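Calls are made per well; low scores hint the gene aids the LPS response, high scores that it dampens it.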 Repeated entries: four replicate wells of each siRNA pool.

Target gene,TNF reporter robust z-score,activity call
C9 (complement C9),0.75,inactive
C9 (complement C9),0.22,inactive
C9 (complement C9),0.56,inactive
C9 (complement C9),0.39,inactive
C8orf76 (chromosome 8 open reading frame 76),1.03,inactive
C8orf76 (chromosome 8 open reading frame 76),2.05,inactive
C8orf76 (chromosome 8 open reading frame 76),1.69,inactive
C8orf76 (chromosome 8 open reading frame 76),2.57,inactive
RBMY1F (RNA binding motif protein Y-linked family 1 member F),0.16,inactive
RBMY1F (RNA binding motif protein Y-linked family 1 member F),0.06,inactive
RBMY1F (RNA binding motif protein Y-linked family 1 member F),0.84,inactive
RBMY1F (RNA binding motif protein Y-linked family 1 member F),1.27,inactive
SMCO3 (single-pass membrane protein with coiled-coil domains 3),-1.09,inactive
SMCO3 (single-pass membrane protein with coiled-coil domains 3),-1.15,inactive
SMCO3 (single-pass membrane protein with coiled-coil domains 3),-0.79,inactive
SMCO3 (single-pass membrane protein with coiled-coil domains 3),-1.19,inactive
OLIG3 (oligodendrocyte transcription factor 3),0.94,inactive
OLIG3 (oligodendrocyte transcription factor 3),0.91,inactive
OLIG3 (oligodendrocyte transcription factor 3),1.04,inactive
OLIG3 (oligodendrocyte transcription factor 3),1.2,inactive
HNRNPU (heterogeneous nuclear ribonucleoprotein U),0.54,inactive
HNRNPU (heterogeneous nuclear ribonucleoprotein U),1.23,inactive
HNRNPU (heterogeneous nuclear ribonucleoprotein U),0.75,inactive
HNRNPU (heterogeneous nuclear ribonucleoprotein U),0.5,inactive
ADK (adenosine kinase),2.12,inactive
ADK (adenosine kinase),3.73,active
ADK (adenosine kinase),1.09,inactive
ADK (adenosine kinase),2.43,inactive
CCM2 (CCM2 scaffold protein),-1.04,inactive
CCM2 (CCM2 scaffold protein),0.32,inactive
CCM2 (CCM2 scaffold protein),0.44,inactive
CCM2 (CCM2 scaffold protein),-0.02,inactive
CYP4X1 (cytochrome P450 family 4 subfamily X member 1),1.41,inactive
CYP4X1 (cytochrome P450 family 4 subfamily X member 1),0.64,inactive
CYP4X1 (cytochrome P450 family 4 subfamily X member 1),1.45,inactive
CYP4X1 (cytochrome P450 family 4 subfamily X member 1),3.51,active
SPACA3 (sperm acrosome associated 3),-0.41,inactive
SPACA3 (sperm acrosome associated 3),-0.5,inactive
SPACA3 (sperm acrosome associated 3),-1.06,inactive
SPACA3 (sperm acrosome associated 3),0.02,inactive
C3orf22 (chromosome 3 open reading frame 22),3.52,active
C3orf22 (chromosome 3 open reading frame 22),0.53,inactive
C3orf22 (chromosome 3 open reading frame 22),-0.72,inactive
C3orf22 (chromosome 3 open reading frame 22),0.64,inactive
OR5AR1 (olfactory receptor family 5 subfamily AR member 1),1.11,inactive
OR5AR1 (olfactory receptor family 5 subfamily AR member 1),0.98,inactive
OR5AR1 (olfactory receptor family 5 subfamily AR member 1),1.91,inactive
OR5AR1 (olfactory receptor family 5 subfamily AR member 1),-0.02,inactive
"GUCY2F (guanylate cyclase 2F, retinal)",-0.24,inactive
"GUCY2F (guanylate cyclase 2F, retinal)",1.36,inactive
"GUCY2F (guanylate cyclase 2F, retinal)",1.76,inactive
"GUCY2F (guanylate cyclase 2F, retinal)",2.72,inactive
SLC30A1,0.03,inactive
SLC30A1,-0.99,inactive
SLC30A1,1.03,inactive
SLC30A1,1.07,inactive

Active calls (from the list above):
Target gene,TNF reporter robust z-score,activity call
ADK (adenosine kinase),3.73,active
CYP4X1 (cytochrome P450 family 4 subfamily X member 1),3.51,active
C3orf22 (chromosome 3 open reading frame 22),3.52,active

Continued:
Target gene,TNF reporter robust z-score,activity call
KRT6C (keratin 6C),0.62,inactive
KRT6C (keratin 6C),0.4,inactive
KRT6C (keratin 6C),0.39,inactive
KRT6C (keratin 6C),0.77,inactive
MKLN1 (muskelin 1),-0.89,inactive
MKLN1 (muskelin 1),-0.75,inactive
MKLN1 (muskelin 1),-0.92,inactive
CYP4B1 (cytochrome P450 family 4 subfamily B member 1),-0.32,inactive
CYP4B1 (cytochrome P450 family 4 subfamily B member 1),0.93,inactive
CYP4B1 (cytochrome P450 family 4 subfamily B member 1),0.4,inactive
CYP4B1 (cytochrome P450 family 4 subfamily B member 1),0.11,inactive
SLC19A2,1.12,inactive
SLC19A2,2.22,inactive
SLC19A2,1.66,inactive
SLC19A2,1.56,inactive
RPUSD2 (RNA pseudouridine synthase domain containing 2),1.36,inactive
RPUSD2 (RNA pseudouridine synthase domain containing 2),-0.24,inactive
RPUSD2 (RNA pseudouridine synthase domain containing 2),0.95,inactive
RPUSD2 (RNA pseudouridine synthase domain containing 2),0.19,inactive
PGM3 (phosphoglucomutase 3),-1.32,inactive
PGM3 (phosphoglucomutase 3),-0.85,inactive
PGM3 (phosphoglucomutase 3),-0.66,inactive
PGM3 (phosphoglucomutase 3),1.48,inactive
RHOH (ras homolog family member H),-1.14,inactive
RHOH (ras homolog family member H),-0.61,inactive
RHOH (ras homolog family member H),-0.93,inactive
RHOH (ras homolog family member H),0.12,inactive
SIRT2 (sirtuin 2),0.19,inactive
SIRT2 (sirtuin 2),0.84,inactive
SIRT2 (sirtuin 2),-0.53,inactive
SIRT2 (sirtuin 2),0.73,inactive
NMBR (neuromedin B receptor),-0.36,inactive
NMBR (neuromedin B receptor),0.05,inactive
NMBR (neuromedin B receptor),-0.1,inactive
NMBR (neuromedin B receptor),-0.04,inactive
ANXA8 (annexin A8),1.2,inactive
ANXA8 (annexin A8),0.34,inactive
ANXA8 (annexin A8),0.19,inactive
ANXA8 (annexin A8),0.32,inactive
BPIFA3 (BPI fold containing family A member 3),0.93,inactive
BPIFA3 (BPI fold containing family A member 3),-0.45,inactive
BPIFA3 (BPI fold containing family A member 3),0.56,inactive
BPIFA3 (BPI fold containing family A member 3),0.21,inactive
TGFB2 (transforming growth factor beta 2),-1.15,inactive
TGFB2 (transforming growth factor beta 2),-0.98,inactive
TGFB2 (transforming growth factor beta 2),-0.83,inactive
TGFB2 (transforming growth factor beta 2),1.44,inactive
COL25A1 (collagen type XXV alpha 1 chain),0.9,inactive
COL25A1 (collagen type XXV alpha 1 chain),1.39,inactive
COL25A1 (collagen type XXV alpha 1 chain),-0.67,inactive
COL25A1 (collagen type XXV alpha 1 chain),-0.37,inactive
F8 (coagulation factor VIII),-0.36,inactive
F8 (coagulation factor VIII),-0.6,inactive
F8 (coagulation factor VIII),-0.68,inactive
F8 (coagulation factor VIII),-0.3,inactive
TMSB4X (thymosin beta 4 X-linked),0.22,inactive
TMSB4X (thymosin beta 4 X-linked),-0.42,inactive
TMSB4X (thymosin beta 4 X-linked),-0.05,inactive
TMSB4X (thymosin beta 4 X-linked),-2,active
TEDC2 (tubulin epsilon and delta complex 2),-0.77,inactive
TEDC2 (tubulin epsilon and delta complex 2),-0.47,inactive
TEDC2 (tubulin epsilon and delta complex 2),-0.31,inactive
TEDC2 (tubulin epsilon and delta complex 2),-0.42,inactive
SLAMF6 (SLAM family member 6),1.49,inactive
SLAMF6 (SLAM family member 6),1.51,inactive
SLAMF6 (SLAM family member 6),1.66,inactive
SLAMF6 (SLAM family member 6),3.6,active
MMRN2 (multimerin 2),-0.36,inactive
MMRN2 (multimerin 2),-0.21,inactive
MMRN2 (multimerin 2),-0.25,inactive
MMRN2 (multimerin 2),0.09,inactive
TEKT3 (tektin 3),0.47,inactive
TEKT3 (tektin 3),0.32,inactive
TEKT3 (tektin 3),-0.28,inactive
TEKT3 (tektin 3),0.51,inactive
H2BC10 (H2B clustered histone 10),2.27,inactive
H2BC10 (H2B clustered histone 10),0.98,inactive
H2BC10 (H2B clustered histone 10),1.75,inactive
H2BC10 (H2B clustered histone 10),2.85,active
"NT5M (5',3'-nucleotidase, mitochondrial)",-1.35,inactive
"NT5M (5',3'-nucleotidase, mitochondrial)",-0.96,inactive
"NT5M (5',3'-nucleotidase, mitochondrial)",-1.74,active
"NT5M (5',3'-nucleotidase, mitochondrial)",-1.63,active
GUCY1A2 (guanylate cyclase 1 soluble subunit alpha 2),-0.07,inactive
GUCY1A2 (guanylate cyclase 1 soluble subunit alpha 2),1.87,inactive
GUCY1A2 (guanylate cyclase 1 soluble subunit alpha 2),1.7,inactive
GUCY1A2 (guanylate cyclase 1 soluble subunit alpha 2),2.34,inactive
